From US11852632B2, “Cancer test device, cancer test method, and staining agent for use in cancer test” (MIE UNIVERSITY, priority 2016, dated 2023)

System: ras-family cancer-related gene product
Experiment: Living body staining of large intestine inner wall with stain containing phloxine, multiphoton laser microscope imaging
Type: in vivo, laboratory mouse

SMILES: O=C([O-])c1c(Cl)c(Cl)c(Cl)c(Cl)c1-c1c2cc(Br)c(=O)c(Br)c-2oc2c(Br)c([O-])c(Br)cc12.[Na+].[Na+] [phloxine]
- ratio of the region stained in the red fluorescence color to the entire screen (region dominated by ras-family cancer-related gene expression) (specimen 1, site where cancer cells developed, FIG. 2A (b), 1 wt % phloxine, 840 nm): 80%
- ratio of the region stained in the red fluorescence color to the entire screen (ras-family cancer-related gene expression) (specimen 2, FIG. 2B (b)): 90%
- ratio of the region stained in the red fluorescence color to the entire screen (ras-family cancer-related gene expression) (specimen 3, FIG. 2C (b)): 75%
- red fluorescence color in the screen (specimen 4, healthy living cells, FIG. 3): no green, red, or yellow fluorescence color is present in the screen
